From PMC9355040
Results are given in words; binding and its absence hold for the method and conditions named. In cells and extracts the contact can be indirect. Some entries that bind do so weakly or less than the wild type.

Chains of the proteins cited; added tags and fusions are not shown. Lines headed by an entry give the natural chain unless they say otherwise; changes in a name come on top.
UniProt Q9NZH0: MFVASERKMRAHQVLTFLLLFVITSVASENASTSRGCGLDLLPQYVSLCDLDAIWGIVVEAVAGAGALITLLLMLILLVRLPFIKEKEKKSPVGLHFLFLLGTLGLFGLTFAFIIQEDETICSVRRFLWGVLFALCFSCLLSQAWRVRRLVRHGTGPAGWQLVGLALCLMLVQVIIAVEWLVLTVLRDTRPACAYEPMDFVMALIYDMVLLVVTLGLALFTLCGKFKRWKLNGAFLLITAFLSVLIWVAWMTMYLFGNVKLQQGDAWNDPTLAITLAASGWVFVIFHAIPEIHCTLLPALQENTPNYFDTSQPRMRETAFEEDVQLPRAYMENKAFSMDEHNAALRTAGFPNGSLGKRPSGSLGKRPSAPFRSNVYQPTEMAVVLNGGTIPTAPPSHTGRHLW
UniProt P43119: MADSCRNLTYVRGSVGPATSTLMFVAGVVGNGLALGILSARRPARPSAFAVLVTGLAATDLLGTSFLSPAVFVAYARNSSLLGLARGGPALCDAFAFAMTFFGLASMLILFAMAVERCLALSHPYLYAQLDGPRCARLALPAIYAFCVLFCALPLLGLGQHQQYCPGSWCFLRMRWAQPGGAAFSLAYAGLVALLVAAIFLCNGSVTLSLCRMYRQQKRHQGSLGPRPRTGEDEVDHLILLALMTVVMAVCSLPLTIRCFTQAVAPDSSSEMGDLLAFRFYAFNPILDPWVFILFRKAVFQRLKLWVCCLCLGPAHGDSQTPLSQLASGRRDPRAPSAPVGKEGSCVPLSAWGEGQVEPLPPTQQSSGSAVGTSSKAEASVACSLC

Tests used:
[1] = biological target: GPRC5B receptor, cell-free synthesized, Strep-tagged, transferred from nanodiscs (human) (UniProt Q9NZH0); experiment: pull-down; HEK293T cells transfected with GPRC5B-Myc or HA-IP, then incubated 16 h with 0.5 uM GPCR/nanodiscs; lysis in 25 mM Tris-HCl pH 7.4, 150 mM NaCl, 1% NP-40, 1 mM EDTA, 5% glycerol; cleared lysate on magnetic Strep-Tactin beads 2 h at 4 °C (Strep-tag of the transferred GPCR as bait); western blot (called Co-IP in the methods)
[2] = biological target: prostacyclin receptor (IP), cell-free synthesized, Strep-tagged, transferred from nanodiscs (human) (UniProt P43119); experiment: as above

binding [1]	binding [2]	Substance
binds		HA-IP receptor synthesized in transfected HEK293T cells (from UniProt P43119 1-386)
binds	binds	GPRC5B-Myc synthesized in transfected HEK293T cells (from UniProt Q9NZH0 29-403) (receptor)
